Here are results for one substance from PMC6345998.

The chains behind the UniProt entries cited, without tags or fusion partners. Where a name states a change or a piece, a line headed by the entry shows the natural chain unless it says otherwise.
UniProt Q9EPK5: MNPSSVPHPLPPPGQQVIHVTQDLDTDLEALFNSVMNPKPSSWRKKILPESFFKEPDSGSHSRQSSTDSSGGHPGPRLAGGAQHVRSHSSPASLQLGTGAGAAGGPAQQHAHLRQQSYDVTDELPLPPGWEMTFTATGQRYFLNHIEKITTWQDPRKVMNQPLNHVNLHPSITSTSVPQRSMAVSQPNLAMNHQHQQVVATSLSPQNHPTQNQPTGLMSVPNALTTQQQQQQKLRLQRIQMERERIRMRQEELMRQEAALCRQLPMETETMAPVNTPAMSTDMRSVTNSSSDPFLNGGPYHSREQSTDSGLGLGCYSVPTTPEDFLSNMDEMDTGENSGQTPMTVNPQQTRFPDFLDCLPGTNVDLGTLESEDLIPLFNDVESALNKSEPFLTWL
UniProt P05627: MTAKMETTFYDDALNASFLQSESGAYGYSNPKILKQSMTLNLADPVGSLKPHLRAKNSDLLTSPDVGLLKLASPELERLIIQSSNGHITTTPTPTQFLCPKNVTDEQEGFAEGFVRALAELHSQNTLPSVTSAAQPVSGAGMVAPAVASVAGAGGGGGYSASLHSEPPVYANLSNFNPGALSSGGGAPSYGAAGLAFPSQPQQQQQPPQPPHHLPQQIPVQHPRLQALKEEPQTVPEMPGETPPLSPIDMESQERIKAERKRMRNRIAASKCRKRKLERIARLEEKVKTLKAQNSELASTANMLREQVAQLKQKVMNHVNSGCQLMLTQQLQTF

No constants are given. Whether binding was seen depends on the method and setting. In cells and extracts the contact can be indirect.

This assay addresses WW domain-truncated TAZ (ΔWW) (UniProt Q9EPK5). Put plainly: co-IP; 293T cells co-transfected with FLAG-TAZ constructs and c-Jun; lysis in RIPA buffer; immunoprecipitation with anti-FLAG antibodies, blot with TAZ and c-Jun antibodies.

Consider “c-Jun (ectopically expressed) (from UniProt P05627 1-334)”, for which the binding entry is listed as “no binding”.
